No constants are given. Whether binding was seen depends on the method and setting. In cells and extracts the contact can be indirect. Here binding means that the protein was enriched with, or labelled near, the bait; the list need not be complete. Where a sequence is shown, tags or fusion partners need not be part of it.
Target: T1, 2× HA-3× FLAG-Eya1 (UniProt P97767)
T1 sequence: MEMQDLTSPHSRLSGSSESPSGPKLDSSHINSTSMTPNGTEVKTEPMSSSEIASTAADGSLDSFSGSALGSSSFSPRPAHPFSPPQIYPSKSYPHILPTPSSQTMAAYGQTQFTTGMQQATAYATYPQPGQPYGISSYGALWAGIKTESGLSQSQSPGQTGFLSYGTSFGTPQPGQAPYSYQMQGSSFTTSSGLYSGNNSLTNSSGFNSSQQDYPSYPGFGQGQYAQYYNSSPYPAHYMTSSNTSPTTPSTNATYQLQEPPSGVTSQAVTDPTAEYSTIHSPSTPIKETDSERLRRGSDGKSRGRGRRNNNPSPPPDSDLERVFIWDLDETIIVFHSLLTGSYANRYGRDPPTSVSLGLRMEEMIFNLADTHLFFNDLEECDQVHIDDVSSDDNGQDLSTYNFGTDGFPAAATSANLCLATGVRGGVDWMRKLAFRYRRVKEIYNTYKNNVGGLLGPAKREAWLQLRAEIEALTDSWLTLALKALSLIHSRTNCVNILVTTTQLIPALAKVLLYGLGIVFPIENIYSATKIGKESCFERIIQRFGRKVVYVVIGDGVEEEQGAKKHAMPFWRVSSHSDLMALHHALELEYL
Test: affinity purification with mass spectrometry; tandem purification of HF-Eya1 from lysate of stable HEK293 cells: anti-FLAG M2 beads, FLAG peptide elution, then anti-HA agarose; 50 mM Tris-HCl pH 7.5, 150 mM NaCl, 0.1% Nonidet P-40, 4°C; 12 bands (B1-B12) cut from a silver-stained gel

- binding: binds
B1: ZBTB10 (protein, UniProt Q96DT7 1-871)
chain: MSFSEMNRRTLAFRGGGLVTASGGGSTNNNAGGEASAWPPQPQPRQPPPPAPPALQPPNGRGADEEVELEGLEPQDLEASAGPAAGAAEEAKELLLPQDAGGPTSLGGGAGGPLLAERNRRTLAFRGGGGGGLGNNGSSRGRPETSVWPLRHFNGRGPATVDLELDALEGKELMQDGASLSDSTEDEEEGASLGDGSGAEGGSCSSSRRSGGDGGDEVEGSGVGAGEGETVQHFPLARPKSLMQKLQCSFQTSWLKDFPWLRYSKDTGLMSCGWCQKTPADGGSVDLPPVGHDELSRGTRNYKKTLLLRHHVSTEHKLHEANAQESEIPSEEGYCDFNSRPNENSYCYQLLRQLNEQRKKGILCDVSIVVSGKIFKAHKNILVAGSRFFKTLYCFSNKESPNQNNTTHLDIAAVQGFSVILDFLYSGNLVLTSQNAIEVMTVASYLQMSEVVQTCRNFIKDALNISIKSEAPESVVVDYNNRKPVNRDGLSSSRDQKIASFWATRNLTNLASNVKIENDGCNVDEGQIENYQMNDSSWVQDGSPEMAENESEGQTKVFIWNNMGSQGIQETGKTRRKNQTTKRFIYNIPPNNETNLEDCSVMQPPVAYPEENTLLIKEEPDLDGALLSGPDGDRNVNANLLAEAGTSQDGGDAGTSHDFKYGLMPGPSNDFKYGLIPGTSNDFKYGLIPGASNDFKYGLLPESWPKQETWENGESSLIMNKLKCPHCSYVAKYRRTLKRHLLIHTGVRSFSCDICGKLFTRREHVKRHSLVHKKDKKYKCMVCKKIFMLAASVGIRHGSRRYGVCVDCADKSQPGGQEGVDQGQDTEFPRDEEYEENEVGEADEELVDDGEDQNDPSRWDESGEVCMSLDD
